Laboratory results taken from publication PMC6024880.
These are yes or no findings as the source states them, for the method shown.

Protein sequences, listed by entry. Tags and fused reporters are not part of them. Residues count along the entry.
UniProt P02769, residues 25-607: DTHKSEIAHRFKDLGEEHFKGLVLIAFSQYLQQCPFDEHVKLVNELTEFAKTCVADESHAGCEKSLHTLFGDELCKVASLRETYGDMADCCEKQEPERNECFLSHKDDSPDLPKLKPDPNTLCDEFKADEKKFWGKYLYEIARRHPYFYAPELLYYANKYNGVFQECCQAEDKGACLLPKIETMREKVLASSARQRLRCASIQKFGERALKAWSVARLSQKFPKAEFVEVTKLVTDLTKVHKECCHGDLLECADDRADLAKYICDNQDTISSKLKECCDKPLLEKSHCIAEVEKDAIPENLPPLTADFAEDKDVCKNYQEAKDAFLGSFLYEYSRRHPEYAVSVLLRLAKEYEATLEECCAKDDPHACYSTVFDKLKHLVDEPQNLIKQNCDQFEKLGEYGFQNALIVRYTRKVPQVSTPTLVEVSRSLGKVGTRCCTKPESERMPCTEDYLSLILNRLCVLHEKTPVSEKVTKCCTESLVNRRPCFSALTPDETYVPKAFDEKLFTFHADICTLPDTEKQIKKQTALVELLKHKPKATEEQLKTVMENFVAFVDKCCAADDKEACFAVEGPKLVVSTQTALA
UniProt P01023, residues 24-1474: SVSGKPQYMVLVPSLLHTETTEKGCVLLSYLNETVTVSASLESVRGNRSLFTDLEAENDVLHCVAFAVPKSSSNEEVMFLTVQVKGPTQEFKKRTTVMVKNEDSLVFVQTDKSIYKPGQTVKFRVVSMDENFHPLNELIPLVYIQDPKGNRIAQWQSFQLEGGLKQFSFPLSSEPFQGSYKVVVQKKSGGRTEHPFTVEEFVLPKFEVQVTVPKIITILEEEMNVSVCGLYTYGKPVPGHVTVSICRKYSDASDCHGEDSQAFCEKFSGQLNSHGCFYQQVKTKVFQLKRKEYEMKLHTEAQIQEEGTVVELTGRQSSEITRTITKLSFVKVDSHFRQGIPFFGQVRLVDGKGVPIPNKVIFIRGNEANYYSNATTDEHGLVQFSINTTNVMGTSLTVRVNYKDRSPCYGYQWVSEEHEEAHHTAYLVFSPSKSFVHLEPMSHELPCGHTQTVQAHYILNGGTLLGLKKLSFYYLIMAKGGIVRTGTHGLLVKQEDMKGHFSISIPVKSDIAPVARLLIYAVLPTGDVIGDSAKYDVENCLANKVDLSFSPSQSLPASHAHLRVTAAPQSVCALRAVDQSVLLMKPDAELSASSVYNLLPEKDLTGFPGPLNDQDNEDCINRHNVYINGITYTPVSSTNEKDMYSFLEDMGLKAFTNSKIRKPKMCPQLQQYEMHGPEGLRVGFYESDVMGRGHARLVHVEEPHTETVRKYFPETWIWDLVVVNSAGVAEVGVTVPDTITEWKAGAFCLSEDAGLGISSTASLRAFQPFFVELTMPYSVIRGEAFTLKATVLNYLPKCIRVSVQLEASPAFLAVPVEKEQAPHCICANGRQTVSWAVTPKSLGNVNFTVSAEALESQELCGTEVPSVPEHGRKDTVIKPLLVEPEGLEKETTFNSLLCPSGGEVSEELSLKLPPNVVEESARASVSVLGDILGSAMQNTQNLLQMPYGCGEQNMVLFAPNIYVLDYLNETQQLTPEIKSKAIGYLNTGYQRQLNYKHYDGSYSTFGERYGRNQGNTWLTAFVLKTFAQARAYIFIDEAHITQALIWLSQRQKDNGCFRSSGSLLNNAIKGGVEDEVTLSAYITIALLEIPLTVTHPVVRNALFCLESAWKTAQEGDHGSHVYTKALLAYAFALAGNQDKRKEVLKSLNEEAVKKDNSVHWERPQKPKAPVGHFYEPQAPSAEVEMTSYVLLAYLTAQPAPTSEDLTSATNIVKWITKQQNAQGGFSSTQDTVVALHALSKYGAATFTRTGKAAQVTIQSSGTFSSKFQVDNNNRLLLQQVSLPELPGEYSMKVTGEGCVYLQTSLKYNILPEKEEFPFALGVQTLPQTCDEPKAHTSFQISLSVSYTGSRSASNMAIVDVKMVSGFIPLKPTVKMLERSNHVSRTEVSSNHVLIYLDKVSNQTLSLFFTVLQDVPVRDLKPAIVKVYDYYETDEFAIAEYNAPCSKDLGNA

Target: BSA (blocker of the ELISA plate) (bovine (by the name BSA)) (UniProt P02769)
Assay: ELISA; αS aggregated 9 hr (2.5 μM; controls: monomeric αS, BSA blocker alone) adsorbed to a microplate, blocked with 150 μM BSA, some wells with 0-100 μM bisANS; CLU or α2M at 10 μg/mL in BSA blocking solution, 1 hr at RT; bound chaperone detected with kit antibodies and HRP; both purified

- binding: no binding (tested: 10 μg ⋅ mL^−1)
Substance: α2-macroglobulin (α2M), unlabelled (from UniProt P01023 24-1474)
